From PMC7617106
These are yes or no findings as the source states them, for the method shown. Some results given as binding are weak or reduced against the parent protein; the word gives no strength.

Biological target: T1, CBP-Csm3 (S. cerevisiae) (UniProt Q04659)
T1 sequence: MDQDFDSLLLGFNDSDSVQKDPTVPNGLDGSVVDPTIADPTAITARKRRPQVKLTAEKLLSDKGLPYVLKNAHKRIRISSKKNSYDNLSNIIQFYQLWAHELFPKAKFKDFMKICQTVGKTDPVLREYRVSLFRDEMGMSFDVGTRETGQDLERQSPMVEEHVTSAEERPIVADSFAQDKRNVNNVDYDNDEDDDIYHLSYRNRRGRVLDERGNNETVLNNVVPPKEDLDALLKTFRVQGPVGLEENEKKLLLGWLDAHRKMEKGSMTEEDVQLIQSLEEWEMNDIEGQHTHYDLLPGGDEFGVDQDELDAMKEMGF
Assay: co-purification; tof1 1-783 and CBP-Csm3 co-expressed in S. cerevisiae yRW9 and purified as a complex; strategy in Table S3

binding: binds
B1: Tof1^1-783 (Tof1 with the flexible C terminus removed) (domain or fragment, UniProt P53840 1-783)
chain: MSADLQQGTTNAADFSLTVLRARIALLATAIGGPDYTSQIDPPPYKLGDDCLACLKDLKRWFKLVDDQQKRWDVAMAVAEYRILTDDLLPILIDWENKCSLAAKLAKNNPDHEEFRNKAYYDKIALNCLQLLVLMTWPLIVTEQSSSNQITLYGELKKHQLVYKKTILSMESGKVLRAAIRLALDVIKIDRLSRTPRDNMVLKLVLNFFRNVIAIEPGEFTINTKKSMPKKGITSIDTLPPNVSMDDISLNTVISSFHKNKVFGFLLTLTSSLSKEFDQDFINIPLLEIMFYFTKDVNQELLFPRQFETGTHSKVVNKNESSSANNIVTSAGFELSKLLQKEHQMRKNVIKHTSARHSRFGGLLSIQTPDKTRLTVSGSQALVDEKIALQKLDDSKKWNKRIIKKHQSVAAEGLPNSLLNSQTGKAIFFTESNGKHFKEFINNFIDSGFNILLHSVTNYFTTEQDRMVTLEQVEYLLFFAWFVKYQLLRSKIDNSADIKQVSEALKEVTFILVSSLLRSAYDLKNWTVTHAGMIAFNELLNLVSRTKAAQEEDSTDIEFIVSRLFSDERIQLLSNLPKIGSKYSLQFMKSCIELTHSVLKVLEQYSDDKTLVIEGKSRRQKKFNISEGDITKLIEEENVDRDEALDILTSSLRSIEVNFQKVQANYMTEPVIETYINFLERFRELEDDSIKKVFSFFHRVFVQAKEQALLFRFDLIILLREMLSPDGLDRMSRSRKYVSQFSDYFLARLKKRLKKSPAWFVGLLFPPLHNSEVGFYQRYGEYN
